{"source": "patent US6692922", "binders": {"B1": {"name": "synthetic human mucosae-associated epithelial chemokine (MEC), predicted 105 amino acid mature protein (ligand)", "chain": "ILPIASSCCTEVSHHISRRLLERVNMCRIQRADGDCDLAAVILHVKRRRICVSPHNHTVKQWMKVQAAKKNGKGNVCHRKKHHGKRNSNRAHQGKHETYGHKTPY", "modifications": "biotin moiety (aminocaproic acid-biotin) added to Lysine 124"}}, "target": "T1, human C-C chemokine receptor 10 (CCR10) expressed on L1/2 transfectants (human) (UniProt P46092)", "T1 sequence (looked up)": "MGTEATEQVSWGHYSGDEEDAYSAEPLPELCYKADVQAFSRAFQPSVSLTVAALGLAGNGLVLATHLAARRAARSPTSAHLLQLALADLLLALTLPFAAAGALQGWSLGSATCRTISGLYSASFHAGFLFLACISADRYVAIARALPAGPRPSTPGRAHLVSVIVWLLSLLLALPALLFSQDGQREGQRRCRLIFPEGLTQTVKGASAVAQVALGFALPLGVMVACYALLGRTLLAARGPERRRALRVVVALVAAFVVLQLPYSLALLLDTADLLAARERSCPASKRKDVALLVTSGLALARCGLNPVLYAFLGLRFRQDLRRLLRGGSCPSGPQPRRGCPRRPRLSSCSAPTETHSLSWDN", "experiment": "inferred from chemotaxis of receptor transfectants", "note": "No constants are given. Whether binding was seen depends on the method and setting. Some results given as binding are weak or reduced against the parent protein; the word gives no strength.", "data": [{"binder": "B1", "values": [{"measurement": "binding", "result": "binds"}]}]}
